In PubChem BioAssay AID1487 (National Center for Advancing Translational Sciences (NCATS), 2009):
This is one part of the list. The main result of the screen is listed elsewhere. These columns were measured beside it and carry no call. Compounds called inactive in the main read-out are mostly missing here. Words in brackets tell the shape of the fitted curve; partial curves, single points and poor fits give uncertain potencies.

Test: qHTS Assay for Modulators of Lamin A Splicing
Conditions: HeLa LMNA splicing GFP/RFP minigene ratio, 48 h
Summary of the method: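 S3 HeLa cells stably expressing lamin A-EGFP splicing minigene plus DsRed2, 600 cells/well, 48 h compound exposure at 37C. Laser-scanning cytometry; analysed as GFP (500-530 nm)/RFP (575-640 nm) total intensity ratio; 0.5% DMSO vehicle.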

[1] = measured here: RFP viability control channel
[2] = measured here: GFP splicing reporter channel

Row | Structure (SMILES) | AC50 [1] | AC50 [2]
1 | CCC(=O)Nc1ccccc1C(=O)OC(c1ccccc1)c1ccccc1 | 20 µM [rising, single point] | 
2 | O=C(Nc1ccccc1)C1CCN(C(=O)c2ccc([N+](=O)[O-])cc2)CC1 | 0.501 µM [falling, single point] | 
3 | COc1ccc(-c2nc3ccccc3c(C(=O)Nc3ccc(S(=O)(=O)Nc4cc(C)on4)cc3)c2C)cc1 | 11.2 µM [rising, partial curve] | 
4 | CCCc1nnc(NC(=O)CCC(=O)N2CCN(CCOc3ccc(C)cc3)CC2)s1 | 7.08 µM [rising, full curve] | 5.01 µM [rising, full curve, poor fit]
5 | O=C(Nc1cccc(S(=O)(=O)N2CCCCCC2)c1)c1ccc2c(c1)OCO2 | 15.8 µM [rising, partial curve] | 11.2 µM [rising, partial curve, poor fit]
6 | CCOc1cc(NC(=O)c2ccco2)c(OCC)cc1NC(=O)c1cc(OC)c(OC)c(OC)c1 |  | 5.62 µM [rising, partial curve]
7 | Cc1nc(-n2cc(F)c(=O)[nH]c2=O)c2nc(C)oc2n1 | 12.6 µM [rising, single point] | 
8 | COc1ccc(/C=C2\CCC(C3CCCC3)C2=O)cc1Cn1cccn1 (configuration not stated) |  | 35.5 µM [rising, single point]
9 | Cc1cccc(NC(=O)CSc2nnc(-c3cc(C)n(-c4ccccc4)c3C)o2)c1C | 12.6 µM [rising, single point] | 
10 | CCc1ccc(CNC(=O)c2cnc3sc(N(CC)CC)nn3c2=O)cc1 | 0.2 µM [falling, full curve] | 0.0562 µM [falling, full curve, poor fit]
11 | CN(c1ccc([N+](=O)[O-])cc1C(N)=O)C1CCCCC1 |  | 11.2 µM [rising, partial curve, poor fit]
12 | COc1ccccc1NC(=O)CC1SC(=N)N(c2ccccc2)C1=O (configuration not stated) |  | 0.0112 µM [rising, full curve, poor fit]
13 | Cc1ccc(Cl)cc1N1CCN(S(=O)(=O)c2ccc3c(c2)CC(=O)N3C)CC1 | 10 µM [falling, partial curve] | 22.4 µM [falling, partial curve, poor fit]
14 | CCOc1ccc(CN2CCN(S(=O)(=O)c3ccc(NC(C)=O)cc3)CC2)cc1OC | 15.8 µM [rising, single point] | 12.6 µM [rising, single point]
15 | Cc1cc(Nc2cccc(C(F)(F)F)c2)nc2ccc(NC(=O)c3cncc(Br)c3)cc12 | 5.01 µM [falling, partial curve] | 5.01 µM [falling, partial curve]
16 | Cc1cc(C)c(NC(=O)c2cc3c(nc4sccn43)s2)c(C)c1 | 35.5 µM [rising, single point] | 
17 | Cn1c(=O)oc2cc(S(=O)(=O)N3CCCC(C(=O)Nc4nccs4)C3)ccc21 (configuration not stated) | 14.1 µM [rising, single point] | 
18 | CCOC(=O)N1CCN(CC(=O)Nc2c(C(=O)OC)[nH]c3ccccc23)CC1 | 31.6 µM [rising, single point] | 17.8 µM [rising, single point]
19 | COc1ccc(-c2ccc(C(c3c(C)[nH][nH]c3=O)c3c(C)[nH][nH]c3=O)o2)c([N+](=O)[O-])c1 | 14.1 µM [rising, partial curve, poor fit] | 
20 | CC(C)OC(=O)c1c(NC(=O)c2cc3nc(-c4ccccc4)cc(C(F)(F)F)n3n2)sc2c1CCCC2 |  | 0.00447 µM [rising, full curve, poor fit]
21 | CCc1ccc(-n2c(=O)c3c(C)c(C(=O)N(C)C)sc3n(CC(=O)NCc3ccco3)c2=O)cc1 | 22.4 µM [falling, single point] | 22.4 µM [falling, single point]
22 | Cc1cccc(N=C(NO)c2nonc2N)c1 | 35.5 µM [rising, single point] | 31.6 µM [rising, single point]
23 | CC(=O)c1ccc(NC(=O)CN2C(=O)CCc3cc(S(=O)(=O)N4CCC(C)CC4)ccc32)cc1 | 5.62 µM [rising, single point] | 
24 | CN(c1ccccc1)S(=O)(=O)c1cc(C(=O)N2CCN(c3ccccn3)CC2)ccc1Cl | 25.1 µM [rising, partial curve] | 17.8 µM [rising, partial curve, poor fit]
25 | Cc1nn(-c2ccccc2)c(C)c1NC(=O)COc1ccc2ccccc2c1 | 8.91 µM [rising, partial curve] | 
26 | Cc1cc(C)cc(NS(=O)(=O)c2ccc3[nH]cc(C(=O)NCc4ccco4)c(=O)c3c2)c1 | 2.24 µM [rising, full curve, poor fit] | 
27 | CCC(C)n1c(SCc2ccc([N+](=O)[O-])cc2)nc2ccsc2c1=O (configuration not stated) | 35.5 µM [rising, single point] | 17.8 µM [rising, single point]

Four of these compounds in another layout.
Row	Structure (SMILES)	AC50 [1]	AC50 [2]
19	COc1ccc(-c2ccc(C(c3c(C)[nH][nH]c3=O)c3c(C)[nH][nH]c3=O)o2)c([N+](=O)[O-])c1	14.1 µM [rising, partial curve, poor fit]	
20	CC(C)OC(=O)c1c(NC(=O)c2cc3nc(-c4ccccc4)cc(C(F)(F)F)n3n2)sc2c1CCCC2		0.00447 µM [rising, full curve, poor fit]
21	CCc1ccc(-n2c(=O)c3c(C)c(C(=O)N(C)C)sc3n(CC(=O)NCc3ccco3)c2=O)cc1	22.4 µM [falling, single point]	22.4 µM [falling, single point]
22	Cc1cccc(N=C(NO)c2nonc2N)c1	35.5 µM [rising, single point]	31.6 µM [rising, single point]

(cont.)

Row | Structure (SMILES) | AC50 [1] | AC50 [2]
28 | Cc1ccc(-c2cc(C(=O)Nc3cc(C)on3)c3ccccc3n2)c(C)c1 | 31.6 µM [rising, single point] | 
29 | Cn1c(=O)c(C(=O)COC(=O)c2cc(C3CC3)nc3ccccc23)c(N)n(Cc2ccccc2)c1=O | 22.4 µM [rising, single point] | 14.1 µM [rising, single point]
30 | O=[N+]([O-])c1nn(-c2ccc3c(c2)OCCO3)n(O)c1=NCCCO | 0.178 µM [falling, full curve, poor fit] | 
31 | CC(=O)c1ccc(-n2c(SCC(=O)c3c[nH]c4ccccc34)nc3ccccc3c2=O)cc1 | 1.41 µM [rising, partial curve] | 
32 | O=c1ccc2ccc(Oc3ccc([N+](=O)[O-])cc3[N+](=O)[O-])cc2o1 | 35.5 µM [rising, single point] | 15.8 µM [rising, single point]
33 | C/C(=N/NC(=O)CNC(=O)Cc1ccc(Cl)cc1)c1ccco1 | 0.0794 µM [falling, full curve, poor fit] | 
34 | CCOC(=O)C1CCN(C(c2cccnc2)c2c(NC(=O)c3ccco3)sc(C)c2C)CC1 (configuration not stated) | 11.2 µM [rising, partial curve] | 35.5 µM [rising, single point]
35 | CC(C)(C)c1nn(-c2ccccc2)c2[nH]c(=O)c(CNc3ccc4c(c3)OCCO4)cc12 | 11.2 µM [rising, partial curve] | 11.2 µM [rising, partial curve]
36 | CCc1ccc2c(c1)C1(C(=O)N2)N2CCCC2C(C(=O)c2ccc3ccccc3c2)C12C(=O)Nc1ccccc12 (configuration not stated) | 35.5 µM [falling, single point] | 35.5 µM [falling, single point]
37 | S=c1nc(-c2ccccc2Cl)n(Cc2cccnc2)c2c1CCCC2 |  | 0.00355 µM [falling, full curve, poor fit]
38 | COc1ccc(Br)cc1CNC(=O)c1ccc(-n2c(C)cc3c2CCC(C)C3)cc1 (configuration not stated) | 0.0224 µM [falling, full curve, poor fit] | 
39 | Cc1cc(=O)n(C)c(=O)n1CCCCCCOc1cccc([N+](=O)[O-])c1 | 14.1 µM [rising, partial curve] | 
40 | Cc1nn(C)c2c1c(C(F)(F)F)cc(=O)n2CC(=O)NC(C)(C)C | 0.0141 µM [falling, full curve, poor fit] | 0.0562 µM [falling, full curve, poor fit]
41 | Cc1ccc(C(=O)Nc2ccc(N3CCN(S(C)(=O)=O)CC3)cc2)cc1C | 2.51 µM [falling, partial curve, poor fit] | 
42 | COc1ccc(-c2cc(-c3cccs3)c(C#N)c(SCC(=O)NCc3ccco3)n2)cc1 |  | 5.62 µM [rising, full curve]
43 | COC(=O)c1[nH]c2cccc(OC)c2c1NC(=O)CCN1CCN(c2cccc(Cl)c2)CC1 | 35.5 µM [rising, partial curve] | 
44 | Cc1ccc(S(=O)(=O)NNC(=O)c2ccccc2O)cc1 | 10 µM [rising, partial curve, poor fit] | 
45 | O=[N+]([O-])c1cccc(C(=Nc2cccc(Cl)c2)NO)c1 | 14.1 µM [rising, single point] | 
46 | C[C@H](NCCC(c1ccccc1)c1ccccc1)c1ccccc1 | 3.16 µM [falling, full curve] | 3.16 µM [falling, partial curve]
47 | Clc1cc(Sc2ccc(Br)cc2)nnc1-c1ccccc1 | 35.5 µM [falling, single point] | 
48 | COC(=O)Cc1ccc(NC(=O)c2ccc(C(C)(C)C)cc2)cc1 | 10 µM [rising, partial curve] | 
49 | CCN(c1cccc(C(F)(F)F)c1)S(=O)(=O)c1ccc2c(c1)CCN2C(C)=O | 35.5 µM [rising, single point] | 
50 | CN(Cc1ccccc1)C(=S)Nc1cccnc1 |  | 0.00501 µM [rising, full curve, poor fit]
51 | O=C(OCC(=O)N1CCc2ccccc2C1)c1cccnc1Cl | 0.00794 µM [rising, full curve] | 
52 | COC(=O)c1ccc(NC(=O)c2c(NCc3ccc(OC)c(OC)c3)sc3c2CCCC3)cc1 | 20 µM [rising, partial curve] | 
53 | Cc1nn(-c2ccccc2)c(C)c1/C=N/NC(=O)c1cc(-c2ccc(Br)s2)[nH]n1 | 3.16 µM [falling, single point] | 25.1 µM [falling, single point]
